Changes are numbered by the printed parent chain. No constants are given. Whether binding was seen depends on the method and setting. A result given as binding can be weak or reduced; the word gives no strength. Tags and fused reporters may be left off the sequences shown. For some of these results: Binding seen in cells or lysates may run through a third protein.
Legend:
[1] = target: T1, CcmD:flag (wild type), in GST:CcmC(D:flag)E(H130A) (E. coli) (UniProt P0ABM5); assay: complex retained on SDS-PAGE, immunoblots; ~25 kDa band in GST affinity purified GST:CcmC(D:flag)E(H130A); 12.5% SDS-PAGE, Coomassie, α-FLAG and α-CcmE immunoblots
T1 sequence: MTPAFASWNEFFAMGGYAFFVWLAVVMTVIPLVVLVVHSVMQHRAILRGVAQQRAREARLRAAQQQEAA

By UniProt entry, the sequences of proteins in these tests, tags left out. Where a name states a change or a piece, a line headed by the entry shows the natural chain unless it says otherwise.
UniProt P69490: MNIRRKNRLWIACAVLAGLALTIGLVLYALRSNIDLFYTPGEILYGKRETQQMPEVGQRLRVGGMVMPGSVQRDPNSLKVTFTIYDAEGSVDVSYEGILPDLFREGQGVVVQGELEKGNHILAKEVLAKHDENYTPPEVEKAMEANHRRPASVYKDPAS

[2] = target: T2, GST:CcmC (wild type), in GST:CcmCDE(H130A) or GST:CcmC(D:flag)E(H130A) (E. coli) (UniProt P0ABM1); assay: pull-down; GST affinity purification via the N-terminal GST tag on CcmC of co-expressed GST:CcmCDE(H130A) or GST:CcmC(D:flag)E(H130A) from E. coli; 5 ug affinity purified protein on SDS-PAGE, Coomassie stain and α-GST, α-CcmE, α-FLAG immunoblots
T2 sequence: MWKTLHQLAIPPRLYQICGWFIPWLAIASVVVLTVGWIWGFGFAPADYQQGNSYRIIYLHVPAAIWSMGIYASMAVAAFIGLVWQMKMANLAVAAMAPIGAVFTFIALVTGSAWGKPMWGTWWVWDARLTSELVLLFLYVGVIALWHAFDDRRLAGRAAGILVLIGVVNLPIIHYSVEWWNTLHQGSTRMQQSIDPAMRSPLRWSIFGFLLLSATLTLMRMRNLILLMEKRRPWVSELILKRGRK

[3] = target: T3, GST:CcmC(F103C), in GST:CcmCDE(H130A) (E. coli) (UniProt P0ABM1); assay: as above
T3 sequence: T2 sequence with F103C

[4] = target: T4, GST:CcmC(L170C), in GST:CcmCDE(H130A) (E. coli) (UniProt P0ABM1); assay: as above
T4 sequence: T2 sequence with L170C

[5] = target: T5, GST:CcmC(V102C), in GST:CcmCDE(H130A) (E. coli) (UniProt P0ABM1); assay: as above
T5 sequence: T2 sequence with V102C

[6] = target: T6, GST:CcmC(V163C), in GST:CcmCDE(H130A) (E. coli) (UniProt P0ABM1); assay: as above
T6 sequence: T2 sequence with V163C

[7] = target: T7, GST:CcmC(Y71C), in GST:CcmCDE(H130A) (E. coli) (UniProt P0ABM1); assay: as above
T7 sequence: T2 sequence with Y71C

Measured: binding

CcmE(H130A) (from UniProt P69490)
binds: all assays above
